Some of the results follow. These are further read-outs of the screen, such as a control signal, another cell line or another target. No call is given for them. The list favours compounds with an active or inconclusive main result. Potencies come from curve fits of mixed quality, noted in brackets.
Assay: qHTS Assay to Find Inhibitors of Chronic Active B-Cell Receptor Signaling
Details: ABC-DLBCL IkBa-CBG/CBR reporter, luminescence ratio (green luciferase fused to IkBa over red control in TMD8 lymphoma cells), 4 h
Summary of the method: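 Compounds up to 46 uM were incubated four hours with TMD8 cells whose green CBG68 luciferase is fused to IkappaBalpha; red CBR luminescence normalised the signal, and concentration-effect curves were fitted to fusion, red and ratio data.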

[1] = measured here: IkBa-CBG green luminescence
[2] = measured here: CBR red luminescence, cell number

Question: Which AC50 [1] does the source give for O=C(Nc1cccc(F)c1)c1cc(S(=O)(=O)N2CCOCC2)cs1 here?
Answer: 35.5 µM [rising, partial curve, poor fit]

Question: With Cc1ccc(S(=O)(=O)NC(=O)c2cc(C)n(-c3cc(S(=O)(=O)N4CCOCC4)ccc3N3CCCC3)c2C)cc1 as the compound, how does the AC50 [2] read?
Answer: 4.11 µM [falling, partial curve, poor fit]

Question: For S=C(c1ccc(-c2ccc(Br)cc2)o1)N1CCOCC1, which AC50 [2] is on record?
Answer: 0.891 µM [rising, full curve, poor fit]

Question: Which AC50 [2] does the source give for COc1cc(OC)cc(C(=O)NCCOc2ccccc2)c1 here?
Answer: 0.291 µM [rising, full curve, poor fit]

Question: For COc1ccc(Nc2nc3ccccc3n3cnnc23)cc1Cl, which AC50 [2] is on record?
Answer: 0.891 µM [rising, full curve, poor fit]

Question: With Cc1cc2nccc(-c3ccc(OCCCF)cc3)n2n1 as the compound, how does the AC50 [2] read?
Answer: 1 µM [rising, full curve, poor fit]

Question: With CCOC(=O)C1=C(COC(=O)CNC(=O)c2cccc(C)c2)NC(=O)NC1C (configuration not stated) as the compound, how does the AC50 [2] read?
Answer: 18.4 µM [rising, partial curve, poor fit]

Question: For O=c1c2c(nc3cc(-c4cccc(Cl)c4)[nH]n13)CCC2, which AC50 [2] is on record?
Answer: 4.47 µM [falling, full curve, poor fit]

Question: For O=C(COC(=O)CCC(=O)c1cccs1)NCc1ccco1, which AC50 [2] is on record?
Answer: 29.1 µM [falling, single point]

Question: For CC1CCCCN1C(=O)CSc1nnc(-c2c[nH]c3ccccc23)o1 (configuration not stated), which AC50 [2] is on record?
Answer: 12.6 µM [falling, partial curve]

Question: With CCC(CC)n1[nH]c(=O)cc1N as the compound, how does the AC50 [2] read?
Answer: 25.9 µM [falling, single point]

Question: With CCC(C)Sc1nc(O)c(Cc2ccccc2)c(=O)[nH]1 (configuration not stated) as the compound, how does the AC50 [2] read?
Answer: 25.9 µM [falling, single point]

Question: With CCn1ccc(C(=O)Nc2sc3c(c2C(=O)OC)CCC3)n1 as the compound, how does the AC50 [2] read?
Answer: 2.82 µM [falling, full curve]

Question: Which AC50 [2] does the source give for COc1ccccc1NC(=S)N/N=C/c1ccc(O)cc1 here?
Answer: 23.1 µM [falling, partial curve, poor fit]

Question: And the AC50 [1]?
Answer: 20.6 µM [falling, partial curve, poor fit]

Question: With N=c1c(C(=O)NC2CCCCC2)cc2c(=O)n3ccccc3nc2n1CC1CCCO1 (configuration not stated) as the compound, how does the AC50 [2] read?
Answer: 8.91 µM [rising, partial curve]

Question: For CSc1nc(C)cc(C)c1C(N)=O, which AC50 [2] is on record?
Answer: 0.103 µM [falling, full curve, poor fit]

Question: For COc1ccc(C(=O)N2CCN(C(=O)c3cc(OC)c(OC)c(OC)c3)CC2)cc1, which AC50 [2] is on record?
Answer: 29.1 µM [rising, single point]

Question: With N#Cc1c(NC(=S)NC(=O)C2CCCC2)sc2c1CCCCC2 as the compound, how does the AC50 [2] read?
Answer: 0.82 µM [rising, full curve, poor fit]

Question: Which AC50 [2] does the source give for CCCCC(=O)Nc1ccc(NC(=O)CCCC)nc1 here?
Answer: 0.326 µM [rising, full curve, poor fit]

Question: With COc1ccc(-c2noc(CCC(=O)N3CCN(c4ccccc4C)CC3)n2)cc1 as the compound, how does the AC50 [2] read?
Answer: 6.51 µM [rising, partial curve, poor fit]

Question: For CSC1=N/C(=C\c2cccc(Cl)c2)C(=O)N1N(C)C, which AC50 [2] is on record?
Answer: 12.6 µM [rising, partial curve, poor fit]

Question: Which AC50 [2] does the source give for O=c1[nH]c2cc3c(cc2cc1C(c1nnnn1CC1CCCO1)N1CCCC1)OCO3 (configuration not stated) here?
Answer: 13 µM [rising, partial curve, poor fit]

Question: Which AC50 [2] does the source give for C/C=C/c1ccc(OCCOc2ccc(C=O)cc2)c(OC)c1 here?
Answer: 29.1 µM [rising, single point]

Question: Which AC50 [2] does the source give for Cc1cc([N+](=O)[O-])ccc1NC(=O)/C=C/c1cccs1 here?
Answer: 0.651 µM [rising, full curve, poor fit]

Question: For COc1cc(-c2nnc(SCC(=O)c3ccc(C)cc3)o2)cc(OC)c1OC, which AC50 [1] is on record?
Answer: 13 µM [falling, partial curve, poor fit]

Question: With COc1ccc(CC(C#N)(CO)c2nc3ccccc3[nH]2)cc1 (configuration not stated) as the compound, how does the AC50 [2] read?
Answer: 32.6 µM [falling, single point]

Question: For O=C(CCl)NCCCCCCCCCNC(=O)CCl, which AC50 [2] is on record?
Answer: 32.6 µM [falling, single point]

Question: With COc1cc(C2CC(=O)Oc3c(C(CCN4CCOCC4)c4ccc(N(C)C)cc4)c(OC)cc(OC)c32)cc(OC)c1OC (configuration not stated) as the compound, how does the AC50 [2] read?
Answer: 0.708 µM [rising, full curve, poor fit]

Question: With COc1cc(CN2CCCC(CO)(Cc3cccc(Cl)c3)C2)cc2c1OCO2 (configuration not stated) as the compound, how does the AC50 [2] read?
Answer: 0.501 µM [rising, partial curve, poor fit]

Question: What does the source list for Nc1nc(Cl)nc2c1ncn2[C@@H]1O[C@H](CO)[C@@H](O)[C@H]1O?
Answer: AC50 [2]: 7.31 µM [rising, partial curve]; AC50 [1]: 1 µM [falling, full curve]

Question: With COc1ccccc1CNC(=O)[C@H](Cc1c[nH]c2ccccc12)NC(=O)[C@@H]1Cc2ccccc2CN1 as the compound, how does the AC50 [2] read?
Answer: 20 µM [falling, single point]

Question: For Cc1nnc(SCC(=O)NCc2ccccc2Cl)n(N)c1=O, which AC50 [2] is on record?
Answer: 16.4 µM [rising, single point]

Question: For COc1ccc(-c2ccc(=O)n(CC(=O)Nc3ccc(OC)c(OC)c3)n2)cc1, which AC50 [1] is on record?
Answer: 12.6 µM [rising, partial curve, poor fit]

Question: Which AC50 [2] does the source give for CCC(=O)Nc1c(C)nn(-c2ccc(C)c(C)c2)c1C here?
Answer: 20.6 µM [rising, partial curve]

Question: Which AC50 [2] does the source give for O=[N+]([O-])c1cccc(C2=NCCC(c3ccccc3)O2)c1 (configuration not stated) here?
Answer: 10.3 µM [rising, partial curve]

Question: For COc1ccc(CNC(=O)c2cc(-c3cccs3)on2)cc1, which AC50 [2] is on record?
Answer: 5.01 µM [falling, partial curve, poor fit]

Question: With CCn1c2ccccc2c2cc(NC(=O)c3cccc(OC)c3)ccc21 as the compound, how does the AC50 [2] read?
Answer: 5.8 µM [falling, single point]

Question: Which AC50 [2] does the source give for CC1CCCCC1NC(=O)CCCc1nc2ccccc2c(=O)[nH]1 (configuration not stated) here?
Answer: 29.1 µM [rising, single point]

Question: With CC(=O)c1cccc(NC(=O)CN2C(=O)C(=O)N(Cc3ccco3)C2=O)c1 as the compound, how does the AC50 [2] read?
Answer: 4.11 µM [rising, full curve, poor fit]

Question: For CCNc1oc(/C=C/c2ccc(OCC)cc2)nc1C#N, which AC50 [2] is on record?
Answer: 5.01 µM [rising, single point]

Question: For Cc1cc(C(=O)Nc2c(C)nn(Cc3ccccc3)c2C)on1, which AC50 [2] is on record?
Answer: 0.731 µM [rising, partial curve, poor fit]

Question: For COc1cccc(NC(=O)N2CCc3ccccc3C2)c1, which AC50 [2] is on record?
Answer: 14.1 µM [falling, partial curve]

Question: With Cc1ccc(-c2cn(-c3ccccc3)c(SCC(N)=O)n2)cc1C as the compound, how does the AC50 [2] read?
Answer: 1.3 µM [rising, full curve]

Question: Which AC50 [2] does the source give for CC(=O)N/C(=N/c1nc(C)cc(C)n1)Nc1ccc(F)cc1F here?
Answer: 2.82 µM [falling, single point]

Question: Which AC50 [2] does the source give for O=C(O)c1ccc(CNC(=O)c2ccccc2NC(=O)c2cccc([N+](=O)[O-])c2)cc1 here?
Answer: 35.5 µM [falling, single point]

Question: For O=C(N/N=C/C1CCCCC1)c1ccccc1-n1cccc1, which AC50 [2] is on record?
Answer: 18.4 µM [rising, single point]

Question: For COc1cccc(C(=O)Nc2ccc(N3CCN(S(C)(=O)=O)CC3)cc2)c1, which AC50 [2] is on record?
Answer: 0.164 µM [falling, full curve, poor fit]

Question: With COC(=O)c1ccccc1NCCO as the compound, how does the AC50 [2] read?
Answer: 0.112 µM [rising, full curve, poor fit]

Question: Which AC50 [2] does the source give for CCC1Sc2ccc(S(=O)(=O)CCC(=O)Nc3ccc(OC(F)(F)F)cc3)cc2NC1=O (configuration not stated) here?
Answer: 28.2 µM [falling, single point]

Question: Which AC50 [2] does the source give for CCCCNC(=O)c1cccc(S(=O)(=O)N2CC3(C)CC2CC(C)(C)C3)c1 (configuration not stated) here?
Answer: 18.4 µM [falling, partial curve, poor fit]

Question: Which AC50 [2] does the source give for CCCCOc1ccc(NC(=O)C(=O)NCCCn2ccnc2)cc1 here?
Answer: 5.8 µM [rising, partial curve, poor fit]

Question: With Cn1c(SCc2ccccc2)nc2ccsc2c1=O as the compound, how does the AC50 [2] read?
Answer: 6.31 µM [rising, partial curve, poor fit]

Question: Which AC50 [2] does the source give for Cc1cccc(C(=O)O/N=C(\N)CS(=O)(=O)c2ccccc2)c1 here?
Answer: 2.82 µM [rising, partial curve, poor fit]

Question: Which AC50 [2] does the source give for COc1ccc(C(=O)/C=C/Nc2ccc([N+](=O)[O-])cc2)cc1 here?
Answer: 0.731 µM [rising, full curve]

Question: With O=c1oc2ccccc2n1CCCOc1ccccc1 as the compound, how does the AC50 [2] read?
Answer: 4.11 µM [rising, partial curve, poor fit]

Question: Which AC50 [2] does the source give for O=[N+]([O-])c1ccccc1S(=O)(=O)Nc1cccc2cccnc12 here?
Answer: 3.55 µM [rising, full curve, poor fit]

Question: And the AC50 [1]?
Answer: 3.55 µM [falling, partial curve, poor fit]

Question: Which AC50 [2] does the source give for COC(=O)C1CCN(C(=O)C(C)Oc2ccc(Cl)cc2Cl)CC1 (configuration not stated) here?
Answer: 6.51 µM [falling, single point]

Question: For COc1cccc(NC(=O)CN(C)C(=O)CCNC(=O)c2ccc(Br)cc2)c1, which AC50 [2] is on record?
Answer: 25.9 µM [rising, partial curve, poor fit]

Question: With COc1cc2c(cc1NS(=O)(=O)N1CCCC1)oc1ccccc12 as the compound, how does the AC50 [2] read?
Answer: 11.6 µM [rising, partial curve, poor fit]

Question: Which AC50 [2] does the source give for COc1ccc(S(=O)(=O)N(CC(=O)Nc2ccc3c(c2)OCO3)c2ccccc2OC)cc1 here?
Answer: 14.1 µM [falling, single point]

Question: With Cc1cccnc1-n1c(CCN2C(=O)c3ccccc3C2=O)nc2ccccc2c1=O as the compound, how does the AC50 [2] read?
Answer: 0.708 µM [rising, full curve, poor fit]

Question: For COc1ccc(OC)c(C2CC(c3ccc(NS(C)(=O)=O)cc3)=NN2C(=O)c2ccccc2)c1 (configuration not stated), which AC50 [2] is on record?
Answer: 0.398 µM [rising, full curve, poor fit]

Question: Which AC50 [2] does the source give for CCCCCCCCSc1n[nH]c(N)n1 here?
Answer: 29.1 µM [rising, single point]

Question: With Cc1cccc(CSc2ncccc2C(=O)O)c1 as the compound, how does the AC50 [2] read?
Answer: 0.517 µM [rising, partial curve, poor fit]

— PubChem BioAssay AID493014 (National Center for Advancing Translational Sciences (NCATS), 2011)
